Reference: PubChem BioAssay AID743266 (National Center for Advancing Translational Sciences (NCATS), 2014)
Among all 410,000 compounds or so, about 310 (0.076%) were called active. The inconclusive results got no clear call from the source; some entries with a clear call stand among them for comparison. Calls follow the shape of the dose curve; as a rule, active = well fitted activation curve with a large enough effect; inconclusive = small, poorly fitted or top-dose-only effect, or another doubt; inactive = no such curve, though single readings can be large or run the other way. Where the call is inconclusive, the potency comes from a doubtful curve fit. The source holds several records for some structures; these can differ, active in one and inactive in another.

Protein sequences, listed by entry. Tags and fused reporters are not part of them. Lines headed by an entry give the natural chain unless they say otherwise; changes in a name come on top.
UniProt Q03431: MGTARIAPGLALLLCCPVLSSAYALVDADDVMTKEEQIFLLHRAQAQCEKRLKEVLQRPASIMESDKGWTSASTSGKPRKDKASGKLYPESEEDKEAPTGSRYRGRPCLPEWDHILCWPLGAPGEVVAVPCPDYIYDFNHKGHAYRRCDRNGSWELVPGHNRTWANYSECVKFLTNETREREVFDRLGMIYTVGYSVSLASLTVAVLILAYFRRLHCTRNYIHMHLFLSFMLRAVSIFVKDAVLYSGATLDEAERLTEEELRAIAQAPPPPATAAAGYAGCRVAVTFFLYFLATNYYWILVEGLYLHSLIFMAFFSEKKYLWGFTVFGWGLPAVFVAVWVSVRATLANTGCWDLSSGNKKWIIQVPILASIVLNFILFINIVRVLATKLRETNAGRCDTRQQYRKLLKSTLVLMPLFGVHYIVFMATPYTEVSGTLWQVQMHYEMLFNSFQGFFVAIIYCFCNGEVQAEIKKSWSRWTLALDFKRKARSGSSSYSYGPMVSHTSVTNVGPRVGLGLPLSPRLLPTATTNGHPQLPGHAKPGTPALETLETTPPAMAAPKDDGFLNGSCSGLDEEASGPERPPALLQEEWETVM

molecular target: Parathyroid hormone/parathyroid hormone-related peptide receptor (Homo sapiens) (UniProt Q03431); assay: qHTS for PTHR1 Agonists: Primary Screen; settings: HEK293 GP2 PTHR1 cells, GloSensor cAMP luminescence, 1 h; activation: at 115 µM (top of the series) unless noted; series mostly up to 115 µM; also: nearly all actives have a fitted effect of over 55% in size
Summary of the method: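 HEK-293-derived GP2 cells expressing PTHR1 and a GloSensor cAMP reporter, 3,000/well, plated overnight, given luciferin plus IBMX (each 0.5 mM as added) for 1 h at 37 °C, then compound for 1 h at 37 °C. Luminescence was read after 15 min at room temperature.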
Potency is read from the fitted curve at half-maximal effect.

SMILES	activation	Potency	outcome
Cc1ccc(OCC(=O)N2CCc3ccccc3C2)c(Br)c1	inactive: -40.3%		
CN1CCN(c2nc(Nc3cccc(C(F)(F)F)c3)nc(N3CCOCC3)n2)CC1		inconclusive: 39.8 µM [activator, single point]	
CCCNC(=O)C1CCN(c2nc3ccc(C)cc3[nH]2)CC1		inconclusive: 25.1 µM [activator, single point]	
Cc1ccccc1-n1c(C)c(C#N)c(=O)c(-[n+]2ccccc2)c1[S-]		inconclusive: 8.91 µM [activator, partial curve, poor fit]	
COc1cc(NC(=O)CCS(=O)(=O)c2ccc3c(c2)n(C)c(=O)c(=O)n3C)cc(OC)c1		active: 22.4 µM	
Cc1ccc(C(=O)N2CCN(c3ccc(NC(=S)NC(=O)Cc4ccccc4)cc3)CC2)cc1			inactive [at 57.5 µM]
NC(=O)c1cccnc1Nc1cccc(F)c1		inconclusive: 35.5 µM [activator, partial curve, poor fit]	
Cc1cccc(C(=O)NNC(=O)c2cccc(C)c2)c1			inactive
Nc1nncn1C(=O)c1ccccc1Cl		inconclusive: 2.82 µM [activator, single point]	
O=C(NCCCSc1ccccc1)c1cccnc1			inactive
O=C(COc1ccc2c(c1)C(=O)CC1(CCCCC1)O2)NCc1ccccc1			inactive [at 57.5 µM]
CN1/C(=C\C=C(/C#N)C(=O)Nc2ccccc2F)C(C)(C)c2ccccc21			inactive
CCOC(=O)c1c(C)n(C)c2ccc(OC(C)C(=O)OC)cc12 (stereo not given)		inconclusive: 0.891 µM [activator, partial curve, poor fit]	
OC(COc1ccccc1)CN1CCN(C(c2ccccc2)c2ccccc2)CC1 (stereo not given)		inconclusive: 126 µM [activator, single point]	
Cc1ccc(NC(=O)C(Cc2ccccc2)NS(=O)(=O)c2ccc3c(c2)oc(=O)n3C)cc1F (stereo not given)	inconclusive: -94.9% [activator]		
Cc1ccc(S(=O)(=O)N2[C@@H](c3ccc(C#N)cc3)C(C(=O)O)=C[C@H]2C(C)(C)C)cc1	inconclusive: 33.1% [activator]		
COC(=O)c1ccc(NC(=O)c2cccc(C)c2)cc1			inactive
COc1ccc(NS(=O)(=O)c2ccc(NC(=S)NCC3CCCO3)cc2)cc1 (stereo not given)	inactive: -70.2%		
CCN(c1ccccc1)S(=O)(=O)c1nnc(NC(=O)CC(C)C)s1			inactive
Cc1ccc2nc(N(CCCN(C)C)C(=O)c3ccc(S(=O)(=O)N4CCc5ccccc5C4)cc3)sc2c1			inactive
Cc1cccc(Nc2ncnc3nc[nH]c23)c1			inactive
CN(C(=O)COC(=O)CNC(=O)c1sc2ccccc2c1Cl)c1ccccc1	inactive: -22.2%		
CC(=O)c1ccc(NC(=O)Cc2cccs2)cc1		inconclusive: 79.4 µM [activator, partial curve, poor fit]	
CCCCn1c(SC(C)C(=O)c2ccc(OC)cc2)nc2cc(S(N)(=O)=O)ccc21 (stereo not given)	inconclusive: 98.8% [activator] [at 57.5 µM]		

SMILES	activation	Potency	outcome
CCOC(=O)N1CCN(c2nc3ccc(C)cc3n3cnnc23)CC1		inconclusive: 126 µM [activator, single point]	
CC(C)(C)[C@@H]1C=C(C(=O)O)O[C@H](OCc2ccc(CO)cc2)C1		inconclusive: 141 µM [activator, single point]	
O=C(NCC(c1ccc2c(c1)OCO2)N1CCOCC1)c1cccc(Cl)c1 (stereo not given)		inconclusive: 112 µM [activator, single point]	
CCCCNC(=O)C1CCC(Cn2c(=O)c3sccc3n(CC(=O)N3CCCC3)c2=O)CC1 (stereo not given)		inconclusive: 100 µM [activator, partial curve, poor fit]	
Cc1ccc(N(CC(O)CN2CCOCC2)S(=O)(=O)c2ccc([N+](=O)[O-])cc2)cc1 (stereo not given)		inconclusive: 44.7 µM [activator, partial curve, poor fit]	
COC(=O)c1ccc(NC(=O)CNC(=O)c2sc3ccccc3c2Cl)cc1		inconclusive: 17.8 µM [activator, partial curve, poor fit]	
O=[N+]([O-])c1ccc(C(O)C[n+]2ccccc2)cc1 (stereo not given)		inconclusive: 79.4 µM [activator, partial curve, poor fit]	
Cc1c(Cl)cccc1NC(=S)Nc1ccc2[nH]c(=O)[nH]c2c1		inconclusive: 22.4 µM [activator, single point]	
c1ccc(CCNc2cnccn2)cc1	inconclusive: 35.2% [activator]		
CCN(CC)CCCNC(=O)c1cn(C)c2ccc(S(=O)(=O)N(C)C3CCCCC3)cc2c1=O		inconclusive: 126 µM [activator, single point]	
CCOC(=O)N1CCN(c2c(NCCCN(CC)Cc3ccccc3)c(=O)c2=O)CC1		inconclusive: 1.26 µM [activator, full curve, poor fit]	
Cc1cc(C(=O)COC(=O)c2cc(O)c3ccccc3c2O)c(C)n1CC1CCCO1 (stereo not given)	inactive: -24.5%		
CN(C)c1ccc(C(=O)c2ccc(N(C)C)c3ccccc23)cc1	inconclusive: -58.9% [activator] [at 57.5 µM]		
CCCC(=O)Nc1ccc(C(=O)NCC(=O)OCC)cc1		inconclusive: 6.31 µM [activator, full curve, poor fit]	
COc1ccc(CC(=O)Oc2ccc(C)cc2Br)cc1OC	inactive: -24.7%		
COCCNC(=O)Cn1nc(C)c2c(C)n(-c3ccc(C)cc3)nc2c1=O		inconclusive: 7.94 µM [activator, full curve, poor fit]	
Cc1ccnc(NC(=O)CCc2c[nH]c3ccccc23)c1	inconclusive: -70.7% [activator]		
CC1CN(c2ncc(/C=N/NC(=O)c3ccccc3O)s2)CC(C)O1 (stereo not given)			inactive
CC(C)c1onc(C(=O)NCc2ccccn2)c1[N+](=O)[O-]	inconclusive: 30.5% [activator]		
O=C(/C=C/c1ccccc1)N1CCN(Cc2cc(=O)n3nc(-c4ccccc4F)sc3n2)CC1	inconclusive: 48.1% [activator]		
CCn1cc(C(=O)N2CCN(c3ccc([N+](=O)[O-])cc3)CC2)c(=O)c2ccc(C)nc21	inactive: -69.9%		
CN(Cc1cn[nH]c1-c1ccc(-c2ccccc2)cc1)CC1CCOCC1		inconclusive: 50.1 µM [activator, partial curve, poor fit]	
CCCc1nc2c(nnn2Cc2ccccc2)c(=O)[nH]1		inconclusive: 56.2 µM [activator, partial curve, poor fit]	
COc1cccc(/C=C(/C#N)c2nc3ccccc3[nH]2)c1OC(C)C(=O)O (stereo not given)			inactive

Part of the list above, set out differently.
SMILES,activation,Potency,outcome
CCOC(=O)N1CCN(c2nc3ccc(C)cc3n3cnnc23)CC1,,"inconclusive: 126 µM [activator, single point]",
CC(C)(C)[C@@H]1C=C(C(=O)O)O[C@H](OCc2ccc(CO)cc2)C1,,"inconclusive: 141 µM [activator, single point]",
O=C(NCC(c1ccc2c(c1)OCO2)N1CCOCC1)c1cccc(Cl)c1 (stereo not given),,"inconclusive: 112 µM [activator, single point]",
CCCCNC(=O)C1CCC(Cn2c(=O)c3sccc3n(CC(=O)N3CCCC3)c2=O)CC1 (stereo not given),,"inconclusive: 100 µM [activator, partial curve, poor fit]",
Cc1ccc(N(CC(O)CN2CCOCC2)S(=O)(=O)c2ccc([N+](=O)[O-])cc2)cc1 (stereo not given),,"inconclusive: 44.7 µM [activator, partial curve, poor fit]",
COC(=O)c1ccc(NC(=O)CNC(=O)c2sc3ccccc3c2Cl)cc1,,"inconclusive: 17.8 µM [activator, partial curve, poor fit]",
O=[N+]([O-])c1ccc(C(O)C[n+]2ccccc2)cc1 (stereo not given),,"inconclusive: 79.4 µM [activator, partial curve, poor fit]",
Cc1c(Cl)cccc1NC(=S)Nc1ccc2[nH]c(=O)[nH]c2c1,,"inconclusive: 22.4 µM [activator, single point]",
c1ccc(CCNc2cnccn2)cc1,inconclusive: 35.2% [activator],,
CCN(CC)CCCNC(=O)c1cn(C)c2ccc(S(=O)(=O)N(C)C3CCCCC3)cc2c1=O,,"inconclusive: 126 µM [activator, single point]",
CCOC(=O)N1CCN(c2c(NCCCN(CC)Cc3ccccc3)c(=O)c2=O)CC1,,"inconclusive: 1.26 µM [activator, full curve, poor fit]",
Cc1cc(C(=O)COC(=O)c2cc(O)c3ccccc3c2O)c(C)n1CC1CCCO1 (stereo not given),inactive: -24.5%,,
CN(C)c1ccc(C(=O)c2ccc(N(C)C)c3ccccc23)cc1,inconclusive: -58.9% [activator] [at 57.5 µM],,
CCCC(=O)Nc1ccc(C(=O)NCC(=O)OCC)cc1,,"inconclusive: 6.31 µM [activator, full curve, poor fit]",
COc1ccc(CC(=O)Oc2ccc(C)cc2Br)cc1OC,inactive: -24.7%,,
COCCNC(=O)Cn1nc(C)c2c(C)n(-c3ccc(C)cc3)nc2c1=O,,"inconclusive: 7.94 µM [activator, full curve, poor fit]",
Cc1ccnc(NC(=O)CCc2c[nH]c3ccccc23)c1,inconclusive: -70.7% [activator],,
CC1CN(c2ncc(/C=N/NC(=O)c3ccccc3O)s2)CC(C)O1 (stereo not given),,,inactive
CC(C)c1onc(C(=O)NCc2ccccn2)c1[N+](=O)[O-],inconclusive: 30.5% [activator],,
O=C(/C=C/c1ccccc1)N1CCN(Cc2cc(=O)n3nc(-c4ccccc4F)sc3n2)CC1,inconclusive: 48.1% [activator],,

Following part.

SMILES	activation	Potency	outcome
COc1ccc(C2=NCC(CSc3nnc(-c4ccc5c(c4)OCO5)o3)S2)cc1 (stereo not given)		inconclusive: 35.5 µM [activator, single point]	
O=C(OCC(=O)N(Cc1ccccc1)Cc1ccccc1)c1ccccc1O	inactive: -36.4%		
CC(C)N(C(=O)Cn1c(SCC(=O)N2CCN(c3ccccc3)CC2)nc2ccccc21)C(C)C		inconclusive: 56.2 µM [activator, partial curve, poor fit]	
COc1cccc(OC)c1OCC(O)CN1CCN(c2ccccc2F)CC1 (stereo not given)	inactive: -42.7%		
O=C(Nc1nc(-c2ccc3c(c2)OCCO3)cs1)c1ccc(Br)o1		inconclusive: 31.6 µM [activator, single point]	
Cc1nn(CC(=O)NCc2cccc(Br)c2)c(=O)c2c1sc1ccccc12		inconclusive: 126 µM [activator, single point]	
O=C1NC2(CCCCC2)C(=O)N1CC(=O)N(Cc1ccccc1)c1ccccc1	inconclusive: 31.6% [activator]		
CS(=O)(=O)N1CCC(C(=O)NCc2ccccc2)CC1	inconclusive: 51.7% [activator]		
CCc1nc2ccc(C(=O)NCCCn3ccnc3)cn2c1N(C)CCCc1ccccc1	inactive: -17.1%		
O=C(c1ccccc1)N1CCN(c2ccc([N+](=O)[O-])c(N3CCOCC3)c2)CC1		inconclusive: 141 µM [activator, single point]	
COc1ccc(S(=O)(=O)NCC2CCCN(C(=O)CN3CCCCC3)C2)cc1 (stereo not given)	inconclusive: 33.8% [activator]		
COCc1c(C(=O)OC)nnn1-c1ccccc1		inconclusive: 50.1 µM [activator, single point]	
CC(C)NC(=O)C1CCCN(S(=O)(=O)c2ccc(-n3cnnn3)cc2)C1 (stereo not given)		inconclusive: 35.5 µM [activator, partial curve, poor fit]	
CCCC(=O)NC(c1ccco1)c1cc([N+](=O)[O-])c2cccnc2c1O (stereo not given)		inconclusive: 141 µM [activator, single point]	
COc1ccc(C(=O)NCC(=O)Nc2ccc(F)cc2)cc1OC		inconclusive: 39.8 µM [activator, single point]	
Cc1cc(C)n(-c2nc3ccccc3nc2N2CCCCCC2)n1	inconclusive: 7.38% [activator] [at 57.5 µM]		
O=C(Nc1cc(C(F)(F)F)ccc1Cl)c1cc(-c2cccs2)nc2ccccc12	inactive: -11.7%		
COC(=O)c1nnn(-c2nonc2N)c1CSc1nc2ccccc2o1	inconclusive: 30.1% [activator] [at 57.5 µM]		
COc1ccccc1C(=O)Nc1nnc(CCc2ccccc2)s1	inconclusive: -31.5% [activator]		
Cc1ccc(Cc2nc3ccccc3n2C(CCc2ccccc2)c2nc3ccccc3[nH]2)cc1 (stereo not given)	inactive: -4.73%		
CCOc1cc(C(C(=O)NCC2CCCO2)N(C(=O)Cn2nnc3ccccc32)c2ccccc2C)ccc1O (stereo not given)		inconclusive: 126 µM [activator, single point]	
CCN(CC)S(=O)(=O)c1ccc(N2CCOCC2)c(NC(=O)c2ccc(NC(C)=O)cc2)c1	inconclusive: 16.3% [activator]		
